# In the supplement of paper PMC11438910:
# The list shows a part of the results. Only a few entries rise above the background.
# Columns and labels:
# Test in all cases: fluorescence intensity of antibody binding to polysaccharide-coupled beads; higher = stronger binding
# [1] = molecular target: pneumococcal polysaccharide Pn41A
# [2] = molecular target: pneumococcal polysaccharide Pn41F
# [3] = molecular target: pneumococcal polysaccharide Pn42
# [4] = molecular target: pneumococcal polysaccharide Pn43
# [5] = molecular target: pneumococcal polysaccharide Pn44
# [6] = molecular target: pneumococcal polysaccharide Pn45
# [7] = molecular target: pneumococcal polysaccharide Pn46
# [8] = molecular target: pneumococcal polysaccharide Pn47A
# [9] = molecular target: pneumococcal polysaccharide Pn47F
# [10] = molecular target: pneumococcal polysaccharide Pn48
# [11] = molecular target: pneumococcal polysaccharide Pn5
# [12] = molecular target: pneumococcal polysaccharide Pn6A
# [13] = antibody concentration 2.8593 ng/mL
# [14] = antibody concentration 15.2894 ng/mL
# [15] = antibody concentration 81.7561 ng/mL
# [16] = antibody concentration 437.17 ng/mL
# [17] = antibody concentration 2337.65 ng/mL
# [18] = antibody concentration 12500 ng/mL
# [19] = antibody concentration 0.1 ng/mL
# [20] = antibody concentration 0.534724 ng/mL
binder,measurement,setting,value
3S41.2 (protein) chain 1: EVQLVESGGGLVQPGGSLRLSCATSGFTFRNYWMYWFRQAPGKGLDWVSSISDSSSNTFYSDSVKGRFTISRDNAKNTLYLQMNSLRAEDTAVYYCARRPIAAATGVYWYFDLWGPGTPITVSS chain 2: QAALTQPPSMSGSPGQSVTISCTGTSSDIGGYNRVSWYQQYPGKAPKLMIYEVSKRPSGVSDRFSGSKSGNTAALTISGLQAADEADYYCSSYAGSYTFVLFGGGTRLTVL,fluorescence intensity,[1]; [13],23.8 MFI
same,fluorescence intensity,[1]; [14],22.5 MFI
same,fluorescence intensity,[1]; [15],23 MFI
same,fluorescence intensity,[1]; [16],23.5 MFI
same,fluorescence intensity,[1]; [17],28 MFI
same,fluorescence intensity,[1]; [18],34.2 MFI
same,fluorescence intensity,[2]; [19],13.2 MFI
same,fluorescence intensity,[2]; [20],13.5 MFI
same,fluorescence intensity,[2]; [13],13.2 MFI
same,fluorescence intensity,[2]; [14],13 MFI
same,fluorescence intensity,[2]; [15],13.5 MFI
same,fluorescence intensity,[2]; [16],13 MFI
same,fluorescence intensity,[2]; [17],17 MFI
same,fluorescence intensity,[2]; [18],28.5 MFI
same,fluorescence intensity,[3]; [19],11 MFI
same,fluorescence intensity,[3]; [20],11.2 MFI
same,fluorescence intensity,[3]; [13],12.8 MFI
same,fluorescence intensity,[3]; [14],12 MFI
same,fluorescence intensity,[3]; [15],12.5 MFI
same,fluorescence intensity,[3]; [16],13 MFI
same,fluorescence intensity,[3]; [17],20.5 MFI
same,fluorescence intensity,[3]; [18],80.8 MFI
same,fluorescence intensity,[4]; [19],17 MFI
same,fluorescence intensity,[4]; [20],15.5 MFI
same,fluorescence intensity,[4]; [13],16 MFI
same,fluorescence intensity,[4]; [14],16.5 MFI
same,fluorescence intensity,[4]; [15],16 MFI
same,fluorescence intensity,[4]; [16],19 MFI
same,fluorescence intensity,[4]; [17],70.8 MFI
same,fluorescence intensity,[4]; [18],627 MFI
same,fluorescence intensity,[5]; [19],24.5 MFI
same,fluorescence intensity,[5]; [20],26 MFI
same,fluorescence intensity,[5]; [13],26 MFI
same,fluorescence intensity,[5]; [14],24.8 MFI
same,fluorescence intensity,[5]; [15],24 MFI
same,fluorescence intensity,[5]; [16],27 MFI
same,fluorescence intensity,[5]; [17],30.8 MFI
same,fluorescence intensity,[5]; [18],38.2 MFI
same,fluorescence intensity,[6]; [19],11.5 MFI
same,fluorescence intensity,[6]; [20],11 MFI
same,fluorescence intensity,[6]; [13],11.5 MFI
same,fluorescence intensity,[6]; [14],10.5 MFI
same,fluorescence intensity,[6]; [15],11 MFI
same,fluorescence intensity,[6]; [16],12 MFI
same,fluorescence intensity,[6]; [17],13.5 MFI
same,fluorescence intensity,[6]; [18],19.2 MFI
same,fluorescence intensity,[7]; [19],24 MFI
same,fluorescence intensity,[7]; [20],24 MFI
same,fluorescence intensity,[7]; [13],25 MFI
same,fluorescence intensity,[7]; [14],24 MFI
same,fluorescence intensity,[7]; [15],23.5 MFI
same,fluorescence intensity,[7]; [16],26.5 MFI
same,fluorescence intensity,[7]; [17],45 MFI
same,fluorescence intensity,[7]; [18],154 MFI
same,fluorescence intensity,[8]; [19],15.5 MFI
same,fluorescence intensity,[8]; [20],16 MFI
same,fluorescence intensity,[8]; [13],15.5 MFI
same,fluorescence intensity,[8]; [14],16.5 MFI
same,fluorescence intensity,[8]; [15],17.5 MFI
same,fluorescence intensity,[8]; [16],17 MFI
same,fluorescence intensity,[8]; [17],21 MFI
same,fluorescence intensity,[8]; [18],41 MFI
same,fluorescence intensity,[9]; [19],11 MFI
same,fluorescence intensity,[9]; [20],11.5 MFI
same,fluorescence intensity,[9]; [13],12 MFI
same,fluorescence intensity,[9]; [14],14.2 MFI
same,fluorescence intensity,[9]; [15],13.5 MFI
same,fluorescence intensity,[9]; [16],14.5 MFI
same,fluorescence intensity,[9]; [17],28.5 MFI
same,fluorescence intensity,[9]; [18],149 MFI
same,fluorescence intensity,[10]; [19],20.8 MFI
same,fluorescence intensity,[10]; [20],21 MFI
same,fluorescence intensity,[10]; [13],21.5 MFI
same,fluorescence intensity,[10]; [14],20.5 MFI
same,fluorescence intensity,[10]; [15],21.5 MFI
same,fluorescence intensity,[10]; [16],26.2 MFI
same,fluorescence intensity,[10]; [17],37.5 MFI
same,fluorescence intensity,[10]; [18],70.8 MFI
same,fluorescence intensity,[11]; [19],8.5 MFI
same,fluorescence intensity,[11]; [20],9.25 MFI
same,fluorescence intensity,[11]; [13],9.5 MFI
same,fluorescence intensity,[11]; [14],8 MFI
same,fluorescence intensity,[11]; [15],10 MFI
same,fluorescence intensity,[11]; [16],11.5 MFI
same,fluorescence intensity,[11]; [17],30.2 MFI
same,fluorescence intensity,[11]; [18],193 MFI
same,fluorescence intensity,[12]; [19],22 MFI
same,fluorescence intensity,[12]; [20],22 MFI
same,fluorescence intensity,[12]; [13],21.2 MFI
same,fluorescence intensity,[12]; [14],19.8 MFI

# Quoted at random: 4 entries already listed.
binder,measurement,setting,value
3S41.2 (protein) chain 1: EVQLVESGGGLVQPGGSLRLSCATSGFTFRNYWMYWFRQAPGKGLDWVSSISDSSSNTFYSDSVKGRFTISRDNAKNTLYLQMNSLRAEDTAVYYCARRPIAAATGVYWYFDLWGPGTPITVSS chain 2: QAALTQPPSMSGSPGQSVTISCTGTSSDIGGYNRVSWYQQYPGKAPKLMIYEVSKRPSGVSDRFSGSKSGNTAALTISGLQAADEADYYCSSYAGSYTFVLFGGGTRLTVL,fluorescence intensity,[5]; [17],30.8 MFI
same,fluorescence intensity,[8]; [16],17 MFI
same,fluorescence intensity,[4]; [17],70.8 MFI
same,fluorescence intensity,[10]; [17],37.5 MFI
